# Measurements published in the M2OR odorant receptor database.
# The list shows a part of the results, in another mix than the full data. Calls are pooled over several reports, among them a noisy single-well screen. The list shows a part of the results.
# What was measured:
# Settings in all cases: stereoisomer not certain
# O52R1 = test system: T1, O52R1
# T1 sequence (whole entry): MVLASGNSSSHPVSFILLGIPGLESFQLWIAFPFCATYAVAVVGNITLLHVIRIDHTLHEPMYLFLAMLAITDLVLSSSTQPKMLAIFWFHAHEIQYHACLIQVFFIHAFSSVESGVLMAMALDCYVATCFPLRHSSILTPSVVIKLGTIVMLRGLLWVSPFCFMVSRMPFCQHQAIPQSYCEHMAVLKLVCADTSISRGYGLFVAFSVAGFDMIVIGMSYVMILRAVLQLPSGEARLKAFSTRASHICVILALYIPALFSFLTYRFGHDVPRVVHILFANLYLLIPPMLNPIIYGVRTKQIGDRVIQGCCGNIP
# Method in brief: (§1)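 Values were gathered from published papers (main text and supplementary material), with extra details requested from the original authors when needed, and checked for typos and inconsistencies. Each receptor–molecule pair is called responsive (active) if the original authors judged the measured signal statistically different from baseline, and non-responsive (inactive) otherwise. Assay methods varied by source, often transient mammalian cell-line luciferase assays. Recorded details include cell line, G-protein, co-transfected protein and tags.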
# O52W1 = test system: T2, O52W1
# T2 sequence (whole entry): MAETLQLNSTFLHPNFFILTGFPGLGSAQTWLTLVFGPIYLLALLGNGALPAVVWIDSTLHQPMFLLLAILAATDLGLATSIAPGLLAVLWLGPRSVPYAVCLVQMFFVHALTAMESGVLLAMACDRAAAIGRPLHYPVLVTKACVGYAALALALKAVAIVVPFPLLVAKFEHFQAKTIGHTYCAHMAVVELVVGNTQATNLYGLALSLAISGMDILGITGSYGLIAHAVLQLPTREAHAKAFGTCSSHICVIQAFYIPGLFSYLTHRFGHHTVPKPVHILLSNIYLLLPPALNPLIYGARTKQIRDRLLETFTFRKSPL
# Method in brief: as §1
# O56A3 = test system: T3, O56A3
# T3 sequence (whole entry): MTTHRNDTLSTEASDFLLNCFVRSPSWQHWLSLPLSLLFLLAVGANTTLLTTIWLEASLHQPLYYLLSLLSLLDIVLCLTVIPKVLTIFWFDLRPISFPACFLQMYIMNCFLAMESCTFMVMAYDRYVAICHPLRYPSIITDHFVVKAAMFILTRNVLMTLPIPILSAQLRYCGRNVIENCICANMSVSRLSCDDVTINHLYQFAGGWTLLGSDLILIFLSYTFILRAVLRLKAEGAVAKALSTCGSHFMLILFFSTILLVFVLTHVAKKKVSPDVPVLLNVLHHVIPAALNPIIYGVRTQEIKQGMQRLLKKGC
# Method in brief: as §1
# O56B1 = test system: T4, O56B1
# T4 sequence (whole entry): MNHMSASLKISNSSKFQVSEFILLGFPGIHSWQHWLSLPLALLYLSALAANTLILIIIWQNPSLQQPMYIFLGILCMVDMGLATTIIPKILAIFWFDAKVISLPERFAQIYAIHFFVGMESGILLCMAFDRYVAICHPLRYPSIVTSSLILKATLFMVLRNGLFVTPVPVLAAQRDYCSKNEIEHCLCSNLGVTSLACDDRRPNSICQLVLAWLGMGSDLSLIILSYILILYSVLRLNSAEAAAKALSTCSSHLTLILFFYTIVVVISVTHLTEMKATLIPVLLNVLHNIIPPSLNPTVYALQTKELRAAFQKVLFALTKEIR
# Method in brief: as §1
# O56B4 = test system: T5, O56B4
# T5 sequence (whole entry): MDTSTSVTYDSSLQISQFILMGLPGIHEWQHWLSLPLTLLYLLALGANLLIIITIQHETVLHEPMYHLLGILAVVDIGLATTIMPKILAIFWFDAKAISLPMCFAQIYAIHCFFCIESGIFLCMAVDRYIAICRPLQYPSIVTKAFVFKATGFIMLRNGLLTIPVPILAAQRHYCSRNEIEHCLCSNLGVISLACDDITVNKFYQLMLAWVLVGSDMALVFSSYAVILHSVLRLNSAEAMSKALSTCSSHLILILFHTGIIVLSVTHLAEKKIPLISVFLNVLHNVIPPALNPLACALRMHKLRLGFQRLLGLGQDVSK
# Method in brief: as §1
# O5AC2 = test system: T6, O5AC2
# T6 sequence (whole entry): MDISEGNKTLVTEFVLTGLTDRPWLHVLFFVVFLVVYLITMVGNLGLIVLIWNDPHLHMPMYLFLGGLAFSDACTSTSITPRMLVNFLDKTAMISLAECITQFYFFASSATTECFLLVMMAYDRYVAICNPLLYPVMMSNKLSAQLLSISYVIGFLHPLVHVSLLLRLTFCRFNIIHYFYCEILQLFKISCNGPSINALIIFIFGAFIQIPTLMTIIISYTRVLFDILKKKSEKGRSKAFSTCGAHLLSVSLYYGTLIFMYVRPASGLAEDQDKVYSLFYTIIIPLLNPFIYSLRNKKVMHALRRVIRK
# Method in brief: as §1
# O5AK2 = test system: T7, O5AK2
# T7 sequence (whole entry): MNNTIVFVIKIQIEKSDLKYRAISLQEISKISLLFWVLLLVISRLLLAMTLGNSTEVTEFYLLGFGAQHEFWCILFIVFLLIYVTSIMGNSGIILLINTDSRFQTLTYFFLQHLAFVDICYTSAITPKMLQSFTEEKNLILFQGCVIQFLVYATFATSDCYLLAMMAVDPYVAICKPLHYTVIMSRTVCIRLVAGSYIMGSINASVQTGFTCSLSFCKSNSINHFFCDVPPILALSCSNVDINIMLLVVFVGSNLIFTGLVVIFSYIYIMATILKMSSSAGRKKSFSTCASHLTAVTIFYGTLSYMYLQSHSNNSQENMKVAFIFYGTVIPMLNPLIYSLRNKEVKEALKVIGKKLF
# Method in brief: as §1
# O5AK3 = test system: T8, O5AK3
# T8 sequence (whole entry): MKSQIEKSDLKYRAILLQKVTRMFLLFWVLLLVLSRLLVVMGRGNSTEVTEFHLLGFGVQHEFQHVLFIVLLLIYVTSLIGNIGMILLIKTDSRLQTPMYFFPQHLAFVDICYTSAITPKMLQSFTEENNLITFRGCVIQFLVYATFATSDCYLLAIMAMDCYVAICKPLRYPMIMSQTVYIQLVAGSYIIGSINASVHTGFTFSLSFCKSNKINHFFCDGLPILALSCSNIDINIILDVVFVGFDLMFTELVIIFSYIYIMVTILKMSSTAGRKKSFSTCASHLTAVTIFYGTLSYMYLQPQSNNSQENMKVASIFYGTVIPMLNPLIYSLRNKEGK
# Method in brief: as §1
# O5AL1 = test system: T9, O5AL1
# T9 sequence (whole entry): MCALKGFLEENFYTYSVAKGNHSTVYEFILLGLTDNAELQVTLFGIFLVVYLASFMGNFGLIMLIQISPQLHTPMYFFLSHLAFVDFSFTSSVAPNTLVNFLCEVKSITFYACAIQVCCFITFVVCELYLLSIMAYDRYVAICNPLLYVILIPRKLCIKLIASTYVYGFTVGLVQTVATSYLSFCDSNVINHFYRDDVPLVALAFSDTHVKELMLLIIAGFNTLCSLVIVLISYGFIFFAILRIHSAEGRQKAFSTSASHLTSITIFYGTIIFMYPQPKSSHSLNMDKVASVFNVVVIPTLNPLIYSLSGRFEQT
# Method in brief: as §1
# O5AP2 = test system: T10, O5AP2
# T10 sequence (whole entry): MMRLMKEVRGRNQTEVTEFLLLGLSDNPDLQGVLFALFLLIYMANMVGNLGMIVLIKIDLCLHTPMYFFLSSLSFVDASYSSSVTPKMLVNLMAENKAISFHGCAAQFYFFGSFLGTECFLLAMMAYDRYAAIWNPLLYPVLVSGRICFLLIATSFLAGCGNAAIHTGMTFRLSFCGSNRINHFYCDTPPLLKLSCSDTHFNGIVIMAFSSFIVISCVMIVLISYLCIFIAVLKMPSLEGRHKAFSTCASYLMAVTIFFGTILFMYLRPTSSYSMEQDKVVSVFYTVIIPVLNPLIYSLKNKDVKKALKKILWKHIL
# Method in brief: as §1
# O5AU1 = test system: T11, O5AU1
# T11 sequence (whole entry): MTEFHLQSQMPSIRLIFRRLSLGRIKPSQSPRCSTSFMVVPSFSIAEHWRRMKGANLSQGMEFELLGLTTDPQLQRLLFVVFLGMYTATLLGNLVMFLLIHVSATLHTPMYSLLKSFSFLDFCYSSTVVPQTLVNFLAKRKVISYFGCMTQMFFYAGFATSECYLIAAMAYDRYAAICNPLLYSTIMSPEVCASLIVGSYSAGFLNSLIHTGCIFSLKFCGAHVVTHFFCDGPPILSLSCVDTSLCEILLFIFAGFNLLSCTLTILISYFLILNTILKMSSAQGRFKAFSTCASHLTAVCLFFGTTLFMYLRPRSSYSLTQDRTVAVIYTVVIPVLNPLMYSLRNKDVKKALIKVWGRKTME
# Method in brief: as §1
# O5H14 = test system: T12, O5H14
# T12 sequence (whole entry): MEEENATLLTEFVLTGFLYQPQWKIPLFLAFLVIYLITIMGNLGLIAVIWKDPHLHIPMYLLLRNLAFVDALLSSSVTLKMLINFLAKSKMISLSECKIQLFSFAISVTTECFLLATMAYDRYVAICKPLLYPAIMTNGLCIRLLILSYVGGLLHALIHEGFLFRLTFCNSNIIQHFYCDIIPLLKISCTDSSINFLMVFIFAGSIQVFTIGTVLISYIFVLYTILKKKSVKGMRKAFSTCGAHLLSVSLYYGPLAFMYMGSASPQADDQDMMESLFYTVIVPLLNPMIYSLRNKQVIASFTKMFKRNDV
# Method in brief: as §1
# O6C68 = test system: T13, O6C68
# T13 sequence (whole entry): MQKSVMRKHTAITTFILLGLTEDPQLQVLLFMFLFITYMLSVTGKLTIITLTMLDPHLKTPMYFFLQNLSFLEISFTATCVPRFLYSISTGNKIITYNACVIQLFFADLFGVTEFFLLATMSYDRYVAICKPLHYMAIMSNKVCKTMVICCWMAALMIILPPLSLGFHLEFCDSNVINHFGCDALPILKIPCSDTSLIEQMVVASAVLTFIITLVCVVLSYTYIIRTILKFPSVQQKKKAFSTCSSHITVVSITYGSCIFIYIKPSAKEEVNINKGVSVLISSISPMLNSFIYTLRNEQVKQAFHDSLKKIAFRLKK
# Method in brief: as §1
# O6C70 = test system: T14, O6C70
# T14 sequence (whole entry): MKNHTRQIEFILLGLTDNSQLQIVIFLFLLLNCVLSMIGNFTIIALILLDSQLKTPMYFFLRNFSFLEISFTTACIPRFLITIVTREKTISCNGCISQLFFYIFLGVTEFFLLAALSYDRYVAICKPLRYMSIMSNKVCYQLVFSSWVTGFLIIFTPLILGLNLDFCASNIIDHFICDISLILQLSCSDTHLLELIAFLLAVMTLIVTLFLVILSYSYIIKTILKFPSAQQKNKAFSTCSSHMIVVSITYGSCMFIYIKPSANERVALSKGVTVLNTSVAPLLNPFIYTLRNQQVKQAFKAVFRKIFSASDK
# Method in brief: as §1
# O7E24 = test system: T15, O7E24
# T15 sequence (whole entry): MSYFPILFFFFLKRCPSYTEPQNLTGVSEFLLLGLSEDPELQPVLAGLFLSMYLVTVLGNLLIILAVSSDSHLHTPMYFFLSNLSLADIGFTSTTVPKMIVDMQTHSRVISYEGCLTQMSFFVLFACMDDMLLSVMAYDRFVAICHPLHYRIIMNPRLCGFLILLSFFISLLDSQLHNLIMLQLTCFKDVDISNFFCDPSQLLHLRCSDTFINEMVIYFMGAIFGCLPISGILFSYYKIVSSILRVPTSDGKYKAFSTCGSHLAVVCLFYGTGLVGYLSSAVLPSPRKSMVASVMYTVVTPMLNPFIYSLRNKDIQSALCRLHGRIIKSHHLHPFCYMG
# Method in brief: as §1
# OR10A3 (Homo sapiens) = biological target: T16, OR10A3 (Homo sapiens) (UniProt P58181)
# T16 sequence (whole entry): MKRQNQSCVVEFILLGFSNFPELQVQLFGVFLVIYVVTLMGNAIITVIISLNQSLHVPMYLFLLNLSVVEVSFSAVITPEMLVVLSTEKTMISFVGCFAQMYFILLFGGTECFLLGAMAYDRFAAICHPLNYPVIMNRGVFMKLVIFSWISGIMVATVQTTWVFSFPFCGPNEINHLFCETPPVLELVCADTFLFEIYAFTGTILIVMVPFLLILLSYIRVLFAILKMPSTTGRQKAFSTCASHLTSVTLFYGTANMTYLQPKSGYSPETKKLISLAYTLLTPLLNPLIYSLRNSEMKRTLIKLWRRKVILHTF
# Method in brief: as §1
Compound,odorant receptor agonist call (O52R1),odorant receptor agonist call (O52W1),odorant receptor agonist call (O56A3),odorant receptor agonist call (O56B1),odorant receptor agonist call (O56B4),odorant receptor agonist call (O5AC2),odorant receptor agonist call (O5AK2),odorant receptor agonist call (O5AK3),odorant receptor agonist call (O5AL1),odorant receptor agonist call (O5AP2),odorant receptor agonist call (O5AU1),odorant receptor agonist call (O5H14),odorant receptor agonist call (O6C68),odorant receptor agonist call (O6C70),odorant receptor agonist call (O7E24),odorant receptor agonist call (OR10A3 (Homo sapiens))
CC(C)CC(=O)O,inactive,inactive,inactive,inactive,inactive,inactive,inactive,inactive,inactive,inactive,inactive,inactive,active,inactive,inactive,inactive
CCCCCCOC(=O)CCC,inactive,inactive,inactive,inactive,inactive,inactive,inactive,inactive,inactive,inactive,inactive,inactive,inactive,inactive,inactive,inactive
CC12C=CCC1C1CCC3=CC(=O)CCC3(C)C1CC2 (stereo unspecified),inactive,inactive,inactive,inactive,inactive,inactive,inactive,inactive,inactive,inactive,inactive,inactive,inactive,inactive,inactive,inactive
C=CCSCC=C,inactive,inactive,inactive,inactive,inactive,inactive,inactive,inactive,inactive,inactive,inactive,inactive,inactive,inactive,inactive,inactive
CC=Cc1ccc(O)c(OC)c1,active,active,inactive,inactive,inactive,inactive,inactive,inactive,inactive,inactive,inactive,inactive,active,inactive,inactive,inactive
CCCCCCCC=CC=O,inactive,inactive,inactive,inactive,inactive,inactive,inactive,inactive,inactive,inactive,inactive,active,inactive,inactive,inactive,inactive
